Experimental data reported in article PMC13480958.
Results are given in words; binding and its absence hold for the method and conditions named. Binding seen in cells or lysates may run through a third protein. Some results given as binding are weak or reduced against the parent protein; the word gives no strength. Sequences can lack the tags named with a protein.

Protein sequences, listed by entry. Tags and fused reporters are not part of them.
UniProt P30052: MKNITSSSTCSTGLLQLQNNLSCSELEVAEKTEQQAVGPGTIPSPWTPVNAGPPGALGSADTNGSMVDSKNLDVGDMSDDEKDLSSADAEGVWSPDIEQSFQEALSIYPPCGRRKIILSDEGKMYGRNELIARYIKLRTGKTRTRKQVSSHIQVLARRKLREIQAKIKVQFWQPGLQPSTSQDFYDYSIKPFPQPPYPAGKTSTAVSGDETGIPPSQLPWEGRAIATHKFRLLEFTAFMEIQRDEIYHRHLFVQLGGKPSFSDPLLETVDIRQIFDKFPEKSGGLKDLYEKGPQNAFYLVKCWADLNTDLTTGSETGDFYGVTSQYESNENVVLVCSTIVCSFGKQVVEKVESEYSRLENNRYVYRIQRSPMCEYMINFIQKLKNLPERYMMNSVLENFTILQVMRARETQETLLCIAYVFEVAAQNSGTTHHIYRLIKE

Target: T1, Vg:V5:6xHis (Vestigial) (Drosophila) (UniProt Q26366)
T1 sequence: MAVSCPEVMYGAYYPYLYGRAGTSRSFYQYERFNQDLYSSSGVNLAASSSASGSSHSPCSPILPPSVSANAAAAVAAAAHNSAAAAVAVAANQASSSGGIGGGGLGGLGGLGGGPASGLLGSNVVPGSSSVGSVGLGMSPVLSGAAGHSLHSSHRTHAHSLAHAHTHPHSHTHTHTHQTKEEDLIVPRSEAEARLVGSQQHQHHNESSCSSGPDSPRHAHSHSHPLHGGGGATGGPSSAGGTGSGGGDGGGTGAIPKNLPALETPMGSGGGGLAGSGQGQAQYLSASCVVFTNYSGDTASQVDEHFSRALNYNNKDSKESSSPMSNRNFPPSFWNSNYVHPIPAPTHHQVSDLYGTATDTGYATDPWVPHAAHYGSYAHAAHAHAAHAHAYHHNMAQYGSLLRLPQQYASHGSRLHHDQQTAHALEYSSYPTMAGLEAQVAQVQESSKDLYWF
Assay: co-IP; lysates (RIPA buffer) of S2 cells co-expressing Atro, Vg and Sd; Vg:V5 precipitated with V5-Trap magnetic agarose beads, 1 h; western blot

Sd:Myc (Scalloped) (from UniProt P30052 1-440)
binding: binds
